Results deposited as PubChem BioAssay AID504764 (Drosophila RNAi Screening Center, 2011).

Test: 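Genes whose knock-down alters Notch-dependent transcription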 (primary screen)
System: Drosophila Kc167 cells
Reagents: long dsRNA against Drosophila genes
Time to read-out: about 5 days (4 days dsRNA, then 24 h after transfection)
Challenge: transfection of constitutively active membrane-tethered Notch lacking the extracellular domain, read 24 h later
Measured: 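Light from a Notch-responsive E(spl)m3 luciferase reporter under active Notch, with control-promoter and no-Notch reporter wells to normalise; raw counts from paired wells a and b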
Direction: induced reporter light, run 1, well a and induced reporter light, run 1, well b: higher = more light from the Notch target reporter with active Notch; control promoter light, run 1, well a and control promoter light, run 1, well b: higher = more light from the viral control promoter (cell number, transfection, viability); uninduced reporter light, run 1, well a: higher = more light from the Notch target reporter without active Notch
Active means: 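Hit if the duplicate-averaged log2 ratio of induced to control-promoter light gives a plate-wise z beyond ±2, or induced to uninduced beyond ±1.8; weak-control or discordant-duplicate wells dropped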
Calls: active = modifier hit (raised or lowered Notch signal); inactive = not a hit
The deposit covers about 22,000 reagents; below is a random part of those that have a named target and a result. In the full data, 403 (1.9%) were called active. 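Unnormalised raw counts per well; ratio z-scores behind the hit calls and whether each hit raises or lowers signal are not deposited.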 A plus sign joins genes that one reagent is predicted to hit. Not given: the amount of reagent.

| target | dsRNA | induced reporter light, run 1, well a | induced reporter light, run 1, well b | control promoter light, run 1, well a | control promoter light, run 1, well b | uninduced reporter light, run 1, well a | activity call |
| --- | --- | --- | --- | --- | --- | --- | --- |
| CG17377 | DRSC00950 | 1.32e5 | 95090 | 1.77e5 | 1.34e5 | 10705 | inactive |
| CG17377 | DRSC02615 | 1.99e5 | 2.44e5 | 2.30e5 | 2.07e5 | 19865 | inactive |
| lncRNA:CR32368 | DRSC08899 | 2.06e5 | 2.22e5 | 1.93e5 | 2.31e5 | 11505 | inactive |
| CG12209 | DRSC06119 | 2.07e5 | 2.28e5 | 2.86e5 | 2.96e5 | 22570 | inactive |
| Set | DRSC16861 | 98235 | 1.05e5 | 82655 | 55960 | 8180 | inactive |
| CG42505 + CG42504 + CG31358 | DRSC15235 | 1.53e5 | 1.14e5 | 89130 | 77010 | 8475 | inactive |
| CG42505 + CG42504 + CG31358 | DRSC15308 | 2.00e5 | 2.14e5 | 3.80e5 | 3.99e5 | 16030 | inactive |
| CG42505 + CG42504 + CG31358 | DRSC15309 | 88285 | 59280 | 73335 | 60055 | 3878 | inactive |
| CG11029 | DRSC02119 | 1.53e5 | 1.12e5 | 1.14e5 | 1.64e5 | 7285 | inactive |
| CG15278 | DRSC02481 | 1.32e5 | 1.44e5 | 1.28e5 | 1.52e5 | 11175 | inactive |
| Cyp9h1 | DRSC07391 | 91040 | 93350 | 1.11e5 | 97860 | 8125 | inactive |
| Scsalpha2 | DRSC16003 | 1.62e5 | 1.47e5 | 2.49e5 | 2.22e5 | 13275 | inactive |
| CG15478 | DRSC18057 | 1.77e5 | 1.58e5 | 2.28e5 | 2.33e5 | 11780 | inactive |
| CG13801 | DRSC08335 | 1.03e5 | 1.34e5 | 1.86e5 | 1.58e5 | 6135 | inactive |
| CG31386 (retired record) | DRSC22769 | – | – | – | – | – | inactive |
| CG9760 | DRSC11101 | 69690 | 76800 | 92290 | 77135 | 4555 | inactive |
| CG34309 | DRSC14838 | 2.20e5 | 2.21e5 | 1.88e5 | 2.02e5 | 16050 | inactive |
| srw | DRSC08201 | 56495 | 75055 | 1.20e5 | 73180 | 11200 | inactive |
| upd2 | DRSC19969 | 1.09e5 | 85355 | 1.08e5 | 1.02e5 | 13290 | inactive |
| sens | DRSC09263 | 3000 | 3675 | 5425 | 6075 | 3920 | inactive |
| CG6126 | DRSC15971 | 2.54e5 | 2.77e5 | 3.49e5 | 3.38e5 | 16165 | inactive |
| Slob (retired record) | DRSC03436 | 1.86e5 | 1.59e5 | 1.72e5 | 1.72e5 | 18160 | inactive |
| CG15734 | DRSC19701 | 1.15e5 | 1.13e5 | 2.35e5 | 1.87e5 | 8565 | inactive |
| Acph-1 | DRSC14103 | 95665 | 88295 | 1.28e5 | 1.25e5 | 8110 | inactive |
| Hesr | DRSC19965 | 56495 | 55990 | 71710 | 77175 | 7270 | inactive |
| Rgk2 | DRSC06503 | 40665 | 24255 | 42360 | 44625 | 3865 | inactive |
| CG7632 | DRSC11842 | 99080 | 1.05e5 | 77685 | 64690 | 5630 | inactive |
| CG13813 | DRSC10068 | 87380 | 78370 | 78220 | 65100 | 4175 | inactive |
| salm | DRSC03606 | 97130 | 1.51e5 | 66745 | 1.03e5 | 15355 | inactive |
| fwd | DRSC08580 | 71060 | 77495 | 1.23e5 | 1.42e5 | 5885 | inactive |
| CG6290 | DRSC19979 | 1.34e5 | 1.01e5 | 1.04e5 | 61530 | 8985 | inactive |
| CG34210 | DRSC04579 | 1.66e5 | 1.46e5 | 1.43e5 | 1.44e5 | 11230 | inactive |
| CG11449 | DRSC11662 | 1.15e5 | 87230 | 1.30e5 | 1.38e5 | 6935 | inactive |
| Apoltp | DRSC02508 | 2.16e5 | 2.43e5 | 2.44e5 | 2.61e5 | 20275 | inactive |
| ProRS-m | DRSC08261 | 1.10e5 | 1.51e5 | 1.92e5 | 1.74e5 | 8775 | inactive |
| CG44774 | DRSC18342 | 1.31e5 | 1.15e5 | 1.86e5 | 2.29e5 | 8105 | inactive |
| CG14341 | DRSC00371 | 1.71e5 | 1.86e5 | 1.67e5 | 1.09e5 | 13260 | inactive |
| CG32119 | DRSC09248 | 2.84e5 | 2.18e5 | 3.39e5 | 2.32e5 | 26505 | active |
| mTerf5 | DRSC16209 | 2.13e5 | 2.25e5 | 2.05e5 | 2.04e5 | 15500 | inactive |
| CG6729 | DRSC02984 | 3.09e5 | 2.98e5 | 2.09e5 | 2.20e5 | 17805 | active |
| eco | DRSC11006 | 1.08e5 | 1.03e5 | 69255 | 33085 | 8978 | inactive |
| CG15414 | DRSC00429 | 1.52e5 | 1.28e5 | 1.41e5 | 1.45e5 | 9265 | inactive |
| shrb | DRSC07061 | 54045 | 46890 | 55365 | 60140 | 3530 | inactive |
| B4 | DRSC01868 | 2.38e5 | 2.09e5 | 2.10e5 | 2.10e5 | 17565 | inactive |
| B4 | DRSC03175 | 1.56e5 | 1.56e5 | 1.36e5 | 1.39e5 | 11815 | inactive |
| lqf | DRSC11363 | 1.24e5 | 1.14e5 | 66535 | 35170 | 11830 | inactive |
| CG9686 | DRSC18439 | 1.19e5 | 1.24e5 | 2.69e5 | 2.52e5 | 9360 | inactive |
| CG4554 | DRSC04473 | 1.57e5 | 1.50e5 | 1.75e5 | 1.87e5 | 11700 | active |
| CG16800 | DRSC02518 | 1.31e5 | 1.52e5 | 1.48e5 | 1.59e5 | 10985 | inactive |
| Xpac | DRSC18730 | 2.32e5 | 2.29e5 | 4.62e5 | 4.54e5 | 17110 | inactive |

Records listed so far whose gene name begins with L or l (2):
| target | dsRNA | induced reporter light, run 1, well a | induced reporter light, run 1, well b | control promoter light, run 1, well a | control promoter light, run 1, well b | uninduced reporter light, run 1, well a | activity call |
| --- | --- | --- | --- | --- | --- | --- | --- |
| lncRNA:CR32368 | DRSC08899 | 2.06e5 | 2.22e5 | 1.93e5 | 2.31e5 | 11505 | inactive |
| lqf | DRSC11363 | 1.24e5 | 1.14e5 | 66535 | 35170 | 11830 | inactive |
